In the supplement of paper PMC4635364:
Counter-ions that a name gives are not always drawn. The list shows a part of the results. This data set is noisy: repeats of one test often differ as much as different tests do.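 Human fetal ventral-midbrain neural progenitor line ReNCell VM, differentiated without mitogens. Images stained for doublecortin (early neurons) or tyrosine hydroxylase (dopaminergic neurons) were scored by blinded raters against untreated wells (0 = no change). Repeats and both raters were averaged, and compounds averaging 2 or higher were picked as hits for retesting.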

Test system: ReNCell VM
Experiment: neuronal differentiation score (DCX+ cell fraction vs untreated, manual image score) (score (-3 to 3)); higher = more neuronal differentiation
Details: library: Prestwick; 2 uM; 2 weeks

| SMILES | neuronal differentiation score |
| --- | --- |
| CCCC(C(=O)OCCN(CC)CC)(c1ccccc1)c1ccccc1 [Proadifen hydrochloride] | inactive: 0 |
| Fc1ccc([C@@H]2CCNC[C@H]2COc2ccc3c(c2)OCO3)cc1 [Paroxetine Hydrochloride] | inactive: 0 |
| Cc1cn([C@H]2C[C@H](N=[N+]=[N-])[C@@H](CO)O2)c(=O)[nH]c1=O [Zidovudine, AZT] | inactive: 0 |
| N=C(N)NCC1COC2(CCCCC2)O1 (stereo not drawn) [Guanadrel sulfate] | inactive: 0 |
| Cn1c(=O)c2c(ncn2CCO)n(C)c1=O [Etofylline] | inactive: 0 |
| COC(=O)Nc1nc2cc(Sc3ccccc3)ccc2[nH]1 [Fenbendazole] | inactive: 0 |

Same assay, conditions: library: Spectrum; 2 uM; 2 weeks

| SMILES | neuronal differentiation score |
| --- | --- |
| O=c1c(-c2ccc(O)cc2)coc2cc(O)cc(O)c12 | inactive: 0 |
| COc1cc(/C=C/C(=O)O)cc(OC)c1OC | inactive: 0 |
| CCN(CC)CCNc1ccc(CO)c2sc3ccccc3c(=O)c12 | inactive: 0 |
| CC(C)(C(=O)c1cccnc1)c1cccnc1 | inactive: 0 |
| Cc1ccc2c(c1)CC[C@H]1CC(=O)CC[C@]21C | inactive: 0 |
| O=S(=O)(O)NC1CCCCC1 | inactive: 0 |
| NC(N)=O | inactive: 0 |
| O=c1c(O)c(-c2ccccc2)oc2cc(O)cc(O)c12 | inactive: 0 |
| CC(C)COC(=O)c1ccc(N)cc1 | inactive: 1 |
| CO[C@H]1C[C@@H]2CC[C@@H](C)[C@@](O)(O2)C(=O)C(=O)N2CCCC[C@H]2C(=O)O[C@H]([C@H](C)C[C@@H]2CC[C@@H](O)[C@H](OC)C2)CC(=O)[C@H](C)/C=C(\C)[C@@H](O)[C@@H](OC)C(=O)[C@H](C)C[C@H](C)/C=C/C=C/C=C/1C | inactive: 0 |
| CCc1ccc2c(O)c3c(cc2c1C(=O)OC)C(=O)c1c(O)ccc(O)c1C3=O | inactive: 0 |
| C[C@H]1c2cccc(O)c2C(=O)C2=C(O)[C@]3(O)C(=O)C(C(N)=O)=C(O)[C@@H](N(C)C)[C@@H]3[C@@H](O)[C@@H]21 | active: 3 |
| COC(=O)[C@H]1[C@H]2C[C@H]3c4[nH]c5ccccc5c4CCN3C[C@@H]2CC[C@@H]1O | inactive: 0 |
| CN(C(=O)CN(CCO)CC(=O)N(C)C(C)(C)Cc1ccccc1)C(C)(C)Cc1ccccc1 | inactive: 1 |
| COc1ccc([C@@H](C)C(=O)c2ccc(O)cc2O)cc1 | inactive: 0 |
| CC1(C)C2CCC1(C)C(O)C2 (stereo not drawn) | inactive: 0 |
| CC(=O)O[C@]1(C)CC[C@@]23C[C@H]1C(C)(C)[C@@H]2CC[C@H]3C | inactive: 0 |

Pulled one by one from the list above, 2 records:

| SMILES | neuronal differentiation score |
| --- | --- |
| CN(C(=O)CN(CCO)CC(=O)N(C)C(C)(C)Cc1ccccc1)C(C)(C)Cc1ccccc1 | inactive: 1 |
| CC(C)(C(=O)c1cccnc1)c1cccnc1 | inactive: 0 |
